Test results as given in PubChem BioAssay AID248 (DTP/NCI, 2004).
The list is a part of this screen's results and no random one: it is rich in T/C values a quarter to a half above the control, in often repeated tests (any T/C) and in doses without a T/C. Other doses and runs of a compound stand elsewhere. T/C is the treated group as % of the vehicle group. Some entries give survivors of the animals treated and no T/C: the source files T/C as zero there, which appears to mark a toxic dose or a test without result, not a measured value. Some survivor counts are full or nearly so, which does not show that the dose was tolerated: the source hardly ever lists a survival T/C far under the control, and the zero likely stands for such cases as well. Survivors were counted at the toxicity check, usually on the fifth day, unless a day is given; later deaths do not show. Schedule codes are those of the source, taken here to give the interval after Q, in days (D) or hours (H), and the number of doses after X. Some entries were tested several times; the results are listed from low to high. Some schedule codes hold Z or #, which are not explained here. Where survival is the endpoint, this PubChem deposit counts one and a half times the control or more as active, and values a quarter to a half above the control carry no call in these data; other NCI protocols may use other cut-offs.

Tested on: L1210 leukemia ip in BDF1 mice, survival T/C
Experiment: NCI In Vivo Anticancer Drug Screen. Data for tumor model L1210 Leukemia (intraperitoneal) in B6D2F1 (BDF1) mice
Conditions: T/C endpoint: mean survival time, higher T/C = longer survival
[1] = dose: 100.0 mg/kg/injection, schedule: Q01DX009 (ip), vehicle: saline
[2] = dose: 200.0 mg/kg/injection, schedule: Q01DX009 (ip), vehicle: saline
[3] = dose: 400.0 mg/kg/injection, schedule: Q01DX001 (ip), vehicle: saline
[4] = dose: 100.0 mg/kg/injection, schedule: Q01DX001 (ip), vehicle: saline
[5] = dose: 400.0 mg/kg/injection, schedule: Q01DX009 (ip), vehicle: Klucel (hydroxypropylcellulose) (HPC)
[6] = dose: 400.0 mg/kg/injection, schedule: Q04DX003 (ip), vehicle: saline with Tween-80
[7] = dose: 200.0 mg/kg/injection, schedule: Q01DX001 (ip), vehicle: saline with Tween-80
[8] = dose: 400.0 mg/kg/injection, schedule: Q01DX001 (ip), vehicle: saline with Tween-80

`CC1(C)N=C(N)N=C(N)N1c1cccc(C(=O)Nc2cccc(S(=O)(=O)F)c2)c1` was tested, and the survivor count [1] was 3 of 6, the survivor count [2] was 3 of 6 and the survivor count (dose: 300.0 mg/kg/injection, schedule: Q01DX009 (ip), vehicle: saline) was 0 of 6. For the same molecule, the survivor count [3] was 0 of 6 and the survivor count (dose: 400.0 mg/kg/injection, schedule: Q01DX009 (ip), vehicle: saline) was 0 of 6.
For `Cc1cc(CSC(=N)N)c(CSC(=N)N)cc1C`, the survivor count (dose: 80.0 mg/kg/injection, schedule: Q01DX001 (ip), vehicle: saline) was 0 of 6, the survivor count [4] was 0 of 6 and the survivor count (dose: 200.0 mg/kg/injection, schedule: Q01DX001 (ip), vehicle: saline) was 0 of 6. The survivor count [3] was 0 of 6.
With `COc1cc(N2CCOCC2)ccc1[N+](=O)[O-]` the survivor count (dose: 400.0 mg/kg/injection, schedule: Q04DX003 (ip), vehicle: saline) was 3 of 6.
`O=C(O)c1ccccc1NC(=S)c1ccccc1` was tested, and the survivor count (dose: 200.0 mg/kg/injection, schedule: Q04DX002 (ip), vehicle: other) was 3 of 3 and the survivor count (dose: 400.0 mg/kg/injection, schedule: Q04DX002 (ip), vehicle: other) was 0 of 3.
In the case of `CN(C)C(=S)SCN1CCCCC1`, the survivor count [5] is reported as 0 of 6.
`COc1cc2c(c(OC)c1OC)-c1ccc(SC)c(=O)cc1C(N(C)C)CC2` (stereo not given) was tested, and the T/C (dose: 100.0 mg/kg/injection, schedule: Q01DX009 (ip), vehicle: Klucel (hydroxypropylcellulose) (HPC)) was 147 % of control and the survivor count [5] was 1 of 6.
For `C=C(C)CC1(CC)C(=O)NC(=S)NC1=O`, the survivor count [6] was 3 of 6.
For `O=C(C=C(C(F)(F)F)C(F)(F)F)c1ccc(Cl)c([N+](=O)[O-])c1`, the survivor count (dose: 5.0 mg/kg/injection, schedule: Q01DX009 (ip), vehicle: saline with Tween-80) was 2 of 6, the survivor count (dose: 10.0 mg/kg/injection, schedule: Q01DX009 (ip), vehicle: saline with Tween-80) was 3 of 6 and 4 of 6 and the survivor count (dose: 20.0 mg/kg/injection, schedule: Q01DX009 (ip), vehicle: saline with Tween-80) was 1 of 6. The survivor count (dose: 40.0 mg/kg/injection, schedule: Q01DX009 (ip), vehicle: saline with Tween-80) was 0 of 6, the survivor count (dose: 50.0 mg/kg/injection, schedule: Q01DX001 (ip), vehicle: saline with Tween-80) was 2 of 6 and the survivor count (dose: 75.0 mg/kg/injection, schedule: Q01DX009 (ip), vehicle: saline with Tween-80) was 1 of 6. For the same molecule, the survivor count (dose: 100.0 mg/kg/injection, schedule: Q01DX001 (ip), vehicle: saline with Tween-80) was 0 of 6, the survivor count (dose: 150.0 mg/kg/injection, schedule: Q01DX009 (ip), vehicle: saline with Tween-80) was 0 of 6 and the survivor count [7] was 0 of 6. For the same molecule, the survivor count (dose: 300.0 mg/kg/injection, schedule: Q01DX009 (ip), vehicle: saline with Tween-80) was 0 of 6 and the survivor count [8] was 0 of 6.
With `C=C1CC[N+]2(CCCCCC)CCCC12` (stereo not given) the survivor count (dose: 50.0 mg/kg/injection, schedule: Q01DX009 (ip), vehicle: saline) was 3 of 3, the survivor count [1] was 0 of 3 and the survivor count [2] was 0 of 3.
In the case of `O=c1oc2ccc([N+](=O)[O-])cc2o1`, the survivor count (dose: 150.0 mg/kg/injection, schedule: Q01DX001 (ip), vehicle: acetone) is reported as 2 of 6 and the survivor count (dose: 300.0 mg/kg/injection, schedule: Q01DX001 (ip), vehicle: acetone) is reported as 0 of 6.
For `COc1cc2c3c(c1)/C(=N\N)CCN3CCC2`, the survivor count (dose: 50.0 mg/kg/injection, schedule: Q01DX009 (ip), vehicle: saline with Tween-80) was 6 of 6, the survivor count (dose: 100.0 mg/kg/injection, schedule: Q01DX009 (ip), vehicle: saline with Tween-80) was 6 of 6 and the survivor count [6] was 0 of 6.
For `N#Cc1cn(-c2ccc(Cl)cc2)c2ncccc12`, the survivor count [4] was 3 of 3, the survivor count [7] was 3 of 3 and the survivor count [8] was 3 of 3.
In the case of `C1CSP(SCCSP2SCCS2)S1`, the survivor count (dose: 50.0 mg/kg/injection, schedule: Q01DX009 (ip), vehicle: carboxymethylcellulose (CMC)) is reported as 3 of 3, the T/C (dose: 100.0 mg/kg/injection, schedule: Q04DX002 (ip), vehicle: carboxymethylcellulose (CMC)) is reported as 87, 93, 94, 103 % of control and the survivor count (dose: 400.0 mg/kg/injection, schedule: Q04DX002 (ip), vehicle: carboxymethylcellulose (CMC)) is reported as 0 of 3 and 3 of 6.
For `CCOC(=O)N/N=C(/C)c1ccc(C)cc1`, the survivor count (dose: 400.0 mg/kg/injection, schedule: Q04DX002 (ip), vehicle: saline with Tween-80) was 0 of 3 and 2 of 6.
`OC(CCN1CCCC1)(c1ccccc1)C1CCCCC1` (stereo not given) was tested, and the survivor count (dose: 3.12 mg/kg/injection, schedule: Q01DX009 (ip), vehicle: Klucel (hydroxypropylcellulose) (HPC)) was 1 of 6, the T/C (dose: 25.0 mg/kg/injection, schedule: Q01DX009 (ip), vehicle: Klucel (hydroxypropylcellulose) (HPC)) was 125 % of control and the survivor count (dose: 200.0 mg/kg/injection, schedule: Q01DX009 (ip), vehicle: Klucel (hydroxypropylcellulose) (HPC)) was 0 of 6. For the same molecule, the survivor count (dose: 200.0 mg/kg/injection, schedule: Q04DX003 (ip), vehicle: Klucel (hydroxypropylcellulose) (HPC)) was 1 of 4, the survivor count [5] was 0 of 6 and the survivor count (dose: 400.0 mg/kg/injection, schedule: Q04DX003 (ip), vehicle: Klucel (hydroxypropylcellulose) (HPC)) was 0 of 4.
`C/C(=N\N=C(N)N)c1ccccc1` was tested, and the survivor count (dose: 60.0 mg/kg/injection, schedule: Q01DX Z (oral), vehicle: carboxymethylcellulose (CMC)) was 3 of 6 and the survivor count (dose: 120.0 mg/kg/injection, schedule: Q01DX Z (oral), vehicle: carboxymethylcellulose (CMC)) was 0 of 6.
